This is one part of the list.

Amino acid sequences for entries named in this document (tags omitted).
UniProt Q0JBA9, entry or part of it: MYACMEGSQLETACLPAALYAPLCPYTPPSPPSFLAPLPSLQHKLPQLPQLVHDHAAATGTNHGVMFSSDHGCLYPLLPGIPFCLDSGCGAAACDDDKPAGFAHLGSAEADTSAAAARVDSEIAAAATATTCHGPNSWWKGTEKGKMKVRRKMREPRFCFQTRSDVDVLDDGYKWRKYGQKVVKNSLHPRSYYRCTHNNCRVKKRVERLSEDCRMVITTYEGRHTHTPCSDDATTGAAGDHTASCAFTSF

The target in this experiment is OsWRKY34 (Oryza sativa, UniProt Q0JBA9 1-250). The experiment is described as follows: protein-binding microarray (RPBM); PBS, 2% BSA, 51.3 ng/ul salmon testes DNA, 50 uM zinc acetate, 200 nM TF, 25 C, 1 h; high values mean tight binding. The settings on record: protein: recombinant; tags: N-terminal polyhistidine and DsRed monomer fusion (pET32a); label: CyDye5-dUTP incorporated in the synthesized complementary strand; 3' TTTTT single-stranded linker to array surface; dsDNA, one strand shown. In short, it runs like this: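 For the binding signal, per-feature fluorescence intensity was read in arbitrary units on an Axon 4000B scanner. Before scanning, a 2% BSA-blocked custom Agilent array made double-stranded with Cy5-dUTP was washed after 1 h at 25 °C with 200 nM protein and 50 µM zinc acetate. The proteins were Ni–NTA-purified transcription factors with N-terminal polyhistidine and DsRed fusions, expressed in E. coli BL21-CodonPlus.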
In the case of “CTCATTCCTTCGCTTCTCTCACCTGCTTGTTTGTTCGTCTCGGAGTCACCTAGTGCAG”, the binding signal is 10500 fluorescence intensity (a.u.).
With “GATGTACAGATCGCTGGGTGTTTGTTTTGATTTGTTTCAACGGAGTCACCTAGTGCAG”, the binding signal is 13600 fluorescence intensity (a.u.).
Turning to “GAGTTTTAAGGAATAATGTGGGTTTTATGGAAGTTACAAGCGGAGTCACCTAGTGCAG”, the binding signal was 8490 fluorescence intensity (a.u.).
Take “CCGTATAGCACCCTCTCGCTGTATACCACCCGGGCGGCCACGGAGTCACCTAGTGCAG”: the binding signal is 8050 fluorescence intensity (a.u.).
“CTCTCTCGCCGGTGCGGCCGGCTGCCTCTCTCGCCGGTCCCGGAGTCACCTAGTGCAG”: the binding signal is 10200 fluorescence intensity (a.u.).
As for “TTTCTGGGTGTTGGGAGGTACCATTAAATTGTGCTTGCATCGGAGTCACCTAGTGCAG”, the binding signal was 10300 fluorescence intensity (a.u.).
The value for “CTCATCTCTACACCTGCAGCCCACGCGACCCACCACTGCGCGGAGTCACCTAGTGCAG” was 9580 fluorescence intensity (a.u.); that for “GTCTTTTCTTCAAGGTTATCTTTTTTGTCCCTTTTTTATTCGGAGTCACCTAGTGCAG” was 15200 fluorescence intensity (a.u.); that for “ATCGGATGGGTGGGCGCAAAGGATGACAGCTGGAGTGGTACGGAGTCACCTAGTGCAG” was 11400 fluorescence intensity (a.u.).
On to “GCATCGGCTCCCATCATCATGACTCGGCCGGAGTTGCTCACGGAGTCACCTAGTGCAG”, for which the binding signal is 9110 fluorescence intensity (a.u.).
For the sequence “GTTTATTTTTTAGTCTTTGCTTTTTTATTGCTAAGTACACCGGAGTCACCTAGTGCAG”, the binding signal is 9300 fluorescence intensity (a.u.).
For “ACTTATATTTAACACCTTCTCAGAATGTTTATTTATTATTCGGAGTCACCTAGTGCAG”, the binding signal is 9180 fluorescence intensity (a.u.).
In the case of “AAAAAGATTAATTTGGGCGGGGAGAGAGATTCGCAAAGCGCGGAGTCACCTAGTGCAG”, the binding signal is 8160 fluorescence intensity (a.u.).
As for “GCCATTCTCTCCGCGACGGTCTCGTCTTCCCCACCCCTCGCGGAGTCACCTAGTGCAG”, the figure is 8510 fluorescence intensity (a.u.); as for “TTTCTGCTATAAGTTGGATGGATCTTTCTTTATTCAATAACGGAGTCACCTAGTGCAG”, 8100 fluorescence intensity (a.u.); as for “TTAGTTTTGATTCTGTTCAGAAATCGGTGACCCTTTTCATCGGAGTCACCTAGTGCAG”, 9820 fluorescence intensity (a.u.).
With “ACACAGTATTTAACCCATGTTCTGCTTCACTGTATTTTTGCGGAGTCACCTAGTGCAG”, the binding signal was 12300 fluorescence intensity (a.u.).
Regarding “CATATCTAACTTTTGACCATCCGTTTTATTTAAAAAAATACGGAGTCACCTAGTGCAG”, the binding signal is 8310 fluorescence intensity (a.u.).
With “TGCCACGCCCGTTCGTCCATGTCCTCGGCGGCGGTGGCGGCGGAGTCACCTAGTGCAG”, the binding signal was 10100 fluorescence intensity (a.u.).
As for “AGTGGTGCCTGGCCCGTTCGTCGCATTCACAATCACACACCGGAGTCACCTAGTGCAG”, the binding signal is 10500 fluorescence intensity (a.u.).
For “AATTAAAGAGGTTTACCAGCCCAGTTGACCAATACCAACCCGGAGTCACCTAGTGCAG”, the binding signal is 8340 fluorescence intensity (a.u.).
For the sequence “CCTCTAACCGGTCATCCGTCCTTCATTTGCCGTATAGAAGCGGAGTCACCTAGTGCAG”, the binding signal is 10200 fluorescence intensity (a.u.).
Turning to “GTCCTTCCATCAACCATGTGCACGCCCGTTTTCTGTTCTACGGAGTCACCTAGTGCAG”, the binding signal was 10500 fluorescence intensity (a.u.).
Regarding “TATCGTACAAGCAACTCCTCTGCACCTCTTTTCTTTAAAACGGAGTCACCTAGTGCAG”, the binding signal was 9120 fluorescence intensity (a.u.).
For “AAATAGGGTTGTTCATCATTATTTTTGCGGGTTCATTAAGCGGAGTCACCTAGTGCAG”, the binding signal is 8420 fluorescence intensity (a.u.).
For “GCCAGCTAAGACAATGACCATTTACCTACAGATACTATTCCGGAGTCACCTAGTGCAG”, the binding signal was 9190 fluorescence intensity (a.u.).
Turning to “GTAGCTCGTCGTCACTGCCCATAGTACTCTGGCTTAGCTACGGAGTCACCTAGTGCAG”, the binding signal is 8030 fluorescence intensity (a.u.).
“TTCCTCCCTCGCCTCTTCGCGCCGGCGAGGTCCCACCTTCCGGAGTCACCTAGTGCAG”: the binding signal is 8850 fluorescence intensity (a.u.).
The value for “CCTTTTCCTTTTTATTACATTATATCGTTGTCTTTTTCTACGGAGTCACCTAGTGCAG” was 9960 fluorescence intensity (a.u.); that for “TGTACCGGCAGCAGGACCCGTTATTCCTGGCGTCGCGCGTCGGAGTCACCTAGTGCAG” was 8040 fluorescence intensity (a.u.).
For the sequence “CTCTTGCTGTGTCTTGCGCCGATCCGTCTTTGGTCTCTGCCGGAGTCACCTAGTGCAG”, the binding signal is 11400 fluorescence intensity (a.u.).
Turning to “TCTCCCTTCCTGCGACTTCGTTTCGTTTTGGGTTCGTTTTCGGAGTCACCTAGTGCAG”, the binding signal was 11700 fluorescence intensity (a.u.).
“CGCACCAAACGCACACACCGCGCGCGTCGGCGGCCATGGCCGGAGTCACCTAGTGCAG”: the binding signal is 8190 fluorescence intensity (a.u.).
As for “TTTTGCCCTCTAAGATGCACTTTTCTCTGTTTGTTTCAACCGGAGTCACCTAGTGCAG”, the binding signal is 8140 fluorescence intensity (a.u.).
As to “GCTGACGTGGCCAGCTGATATGTGGGTCTCAAGCTGACTCCGGAGTCACCTAGTGCAG”, the binding signal is 9490 fluorescence intensity (a.u.).
The value for “TAAACTTTACATCTCATCCTATAGTTGTTTTCATCGTTGCCGGAGTCACCTAGTGCAG” was 9170 fluorescence intensity (a.u.); that for “ATGCAATTGTTCTGTTACTGTAGTTCCTCTCTGTTTTGTTCGGAGTCACCTAGTGCAG” was 10400 fluorescence intensity (a.u.).
For the sequence “CTCTCTCTCTGCTGCTGCTCTCTAATCAGTAACCAGTAGTCGGAGTCACCTAGTGCAG”, the binding signal was 9580 fluorescence intensity (a.u.).
For the sequence “ATCTGTATTTTTGTCGGTTCTTAAGATCGTTCAGTTTTGGCGGAGTCACCTAGTGCAG”, the binding signal was 9820 fluorescence intensity (a.u.).
With “CCTCGTTCTTACCATCTCCTCCACCATCCTTATCCTTATCCGGAGTCACCTAGTGCAG”, the binding signal is 8510 fluorescence intensity (a.u.).
For the sequence “CGCGCCACCAGCTCATCATTGTCGACCAATCTTCTTTTCTCGGAGTCACCTAGTGCAG”, the binding signal was 10100 fluorescence intensity (a.u.).
Regarding “CACGACATGTTCTGGATGGTTTCTTTTGCGACATATTTTCCGGAGTCACCTAGTGCAG”, the binding signal was 8030 fluorescence intensity (a.u.).

(Values after article PMC7819943, “Rice protein-binding microarrays: a tool to detect cis-acting elements near promoter regions in rice”.)
